These are yes or no findings as the source states them, for the method shown. Some results given as binding are weak or reduced against the parent protein; the word gives no strength.
Molecular target: full-length human PD1 on cells (human) (UniProt Q15116)
Assay: cell ELISA on CHO-PD1 cells (row 'CHO-PD1 EC50')

By UniProt entry, the sequences of proteins in these tests, tags left out. Where a name states a change or a piece, a line headed by the entry shows the natural chain unless it says otherwise.
UniProt Q15116: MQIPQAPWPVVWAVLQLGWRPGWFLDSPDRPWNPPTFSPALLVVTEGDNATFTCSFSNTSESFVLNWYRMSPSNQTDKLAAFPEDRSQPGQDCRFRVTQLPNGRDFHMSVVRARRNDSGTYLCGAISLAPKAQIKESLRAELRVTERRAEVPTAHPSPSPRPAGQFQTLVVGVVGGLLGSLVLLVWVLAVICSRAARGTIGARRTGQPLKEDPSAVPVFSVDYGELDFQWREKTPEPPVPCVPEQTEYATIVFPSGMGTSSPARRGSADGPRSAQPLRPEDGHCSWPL

binding: binds
B1: PD1-0103-0314 (antibody, human IgG1, V domains shown)
VH: EVQLLESGGGLVQPGGSLRLSCAASGFSFSSYTMSWVRQAPGKGLEWVATISGGGRDIYYPDSVKGRFTISRDNSKNTLYLQMNSLRAEDTAVYYCVLLTGRVYFALDSWGQGTLVTVSS
VL: EIVLTQSPATLSLSPGERATLSCRASESVDTSDNSFIHWYQQKPGQSPRLLIYRSSTLESGIPARFSGSGSGTDFTLTISSLEPEDFAVYYCQQNYDVPWTFGQGTKVEIK

Reference: patent US20230183349A1
